Assay [1] concerns the target T1, human AMHR-II receptor expressed at the surface of the COV434-AMHR-II transfected cell line (human) (UniProt Q16671).
T1 sequence: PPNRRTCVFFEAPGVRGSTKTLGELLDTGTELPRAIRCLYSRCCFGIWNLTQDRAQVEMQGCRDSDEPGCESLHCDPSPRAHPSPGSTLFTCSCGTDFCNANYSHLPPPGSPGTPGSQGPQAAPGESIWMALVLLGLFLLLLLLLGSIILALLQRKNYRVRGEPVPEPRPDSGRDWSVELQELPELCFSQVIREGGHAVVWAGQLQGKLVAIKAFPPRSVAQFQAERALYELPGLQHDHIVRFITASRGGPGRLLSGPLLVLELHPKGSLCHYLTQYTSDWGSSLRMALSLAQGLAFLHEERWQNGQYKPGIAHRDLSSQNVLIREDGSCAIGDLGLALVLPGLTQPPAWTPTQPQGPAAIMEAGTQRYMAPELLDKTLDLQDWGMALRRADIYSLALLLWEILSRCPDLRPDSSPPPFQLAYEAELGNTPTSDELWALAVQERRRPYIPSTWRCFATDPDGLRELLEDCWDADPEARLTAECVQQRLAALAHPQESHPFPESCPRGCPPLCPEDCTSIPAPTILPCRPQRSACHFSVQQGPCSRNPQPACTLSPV
As to the kind of experiment: flow cytometry (figure legend). In general terms: Flow cytometry measures light scatter and fluorescence of single cells or particles in a stream.

Assay [2] deals with T1, human AMHR-II receptor expressed at the surface of the COV434-AMHR-II transfected cell line (human). As to the kind of experiment: flow cytometry, 10 µg/ml 4A3.

Results are given in words; binding and its absence hold for the method and conditions named. Some results given as binding are weak or reduced against the parent protein; the word gives no strength.

B1: anti-AMHR-II 4A3 antibody (antibody, human IgG1, lambda, V domains shown)
VH: EVQLVESGGSLVKPGGSLRLSCAASGFTFSNNAMNWVRQAPGKGLEWISYISGSSRYISYADFVKGRFTISRDNAKNSLYLQMNSLRAEDTAVYYCVRSSDDYFGGGMDVWGRGTLVTVSS
VL: QSVLTQPASVSGSPGQSITISCAGTSSDVGGDNDVSWYQQHPGKAPKLMIYYDSYRPSGVSNRFSGSKSGNTASLTISGLQAEDEADYYCSSSTYYSTRVFGGGTKLTVLG
notes: The tie is therefore indirect; 4A3 was detected with anti-human F(ab')2 and anti-human IgG secondary reagents; also called antibody 4A3; 4A3 antagonist antibody
Take B1: the binding entry in assay [1] and in assay [2] was “binds” in each case.

Values taken from patent US20230348607A1 (EXELIXIS, published 2023).
